Results: patent publication US20240309081A1 (QYUNS THERAPEUTICS, published 2024)
These are yes or no findings as the source states them, for the method shown. Some binding calls cover weakened binding; strength is not graded here.

Target: interleukin-33 of cynomolgus monkeys (cynomolgus monkey)
Assay: SPR (Biacore T200), same method as Example 2

- binding: binds
B1: QX007N (HZD78-70) (antibody, human IgG1, kappa, V domains shown)
VH: EVQLVESGGGLVQPGGSLRLSCAASGFSLSSYHMIWVRQAPGKGLEWVGVIYPNSNIYYATWAKGRFTISRDNSKNTLYLQMNSLRAEDTAVYYCARTIYVHVYSALSIWGQGTLVTVSS
VL: AFQMTQSPSSVSASVGDRVTITCQASESVLNEVSWYQQKPGKAPKLLIYFASKLASGVPSRFSGSGSGTDFTLTISSLQPEDFATYYCQQDWSMDNIDNAFGGGTKVEIKR
notes: Humanized rabbit antibody, expressed in ExpiCHO-S cells and purified with Protein A; also called humanized 78#
